Experimental data published in publication PMC12040169 (PLOS Biology, 2025).
This is one part of the list.

Tested on: T1, CTL2-GFP (C. trachomatis L2/434/Bu, GFP-expressing)
T1 construct: L2/434/Bu, GFP-expressing
Set-up: species or system HeLa; Intracellular C. trachomatis growth in HeLa cells, bulk GFP fluorescence relative to DMSO
Settings: bulk GFP, single well; 28.5 h, 10 µM; inhibitor

Compound | % of control remaining
COc1cc2c(cc1S(N)(=O)=O)C(=O)CCC2 [CBK010234] | 151.658%
CC(C)Nc1nccnc1OCCOc1cccc(O)c1 [CBK115878] | 106.487%
O=C(NC1CCN(CCOc2ccccc2F)CC1)c1cccs1 [CBK305737] | 103.39%
CN1C(=O)COc2ccccc2CCCC[C@@H]2[C@H]1CCCN2C(=O)CCn1ccnc1 [CBK292150] | 137.154%
CN1CCN(C(=O)c2ccc(-c3ccoc3)nc2)CC1 [CBK156280] | 126.91%
COc1ccccc1N(CCCc1cc(C(F)(F)F)cc(C(F)(F)F)c1)C(=O)C(N)C(C)C (stereo not drawn) [CBK001004T] | 78.4973%
OC(CN1CCN(Cc2ccccc2)CC1)Cn1c2ccc(Br)cc2c2cc(Br)ccc21 (stereo not drawn) [CBK262203] | 44.6429%
O=C(NCCOc1cccc(Cl)c1Cl)c1ccccc1-c1ccccc1 [CBK267390] | 101.311%
NS(=O)(=O)c1ccc(NC(=S)NCCN2CCOCC2)cc1 [CBK265818] | 91.3704%
c1ccc2c(c1)oc1cccc(-c3cc(NCCc4c[nH]cn4)ncn3)c12 [CBK037708] | 95.9078%
O=C(Cn1c(=O)c2nncn2c2ncccc21)NC1CCCCCC1 [CBK288600] | 139.256%
N#C/C(=C/c1ccc(Sc2ccc(Cl)cc2)o1)c1ccc(C(=O)O)cc1 [CBK268996] | 131.622%
CCOC(=O)C1=NOC2COC3(CCN(c4ncccn4)CC3)OCC12 (stereo not drawn) [CBK018602] | 100.867%
Cc1csc(N2CCC(NC3COc4ccc(F)cc4C3)CC2)n1 (stereo not drawn) [CBK304751] | 117.05%
Fc1ccc(-c2cnn(-c3ccc(OC(F)(F)F)cc3)n2)c(F)c1 [CBK112740] | 114.896%
CC(C)C(=O)Nc1ccc(-c2ccsc2)c2ccccc12 [CBK083758] | 107.653%
N=c1n(CCN2CCCCC2)c2ccccc2n1CC(=O)c1cccc([N+](=O)[O-])c1 [CBK263481B] | 100%
N#Cc1ccccc1N1C(=O)c2cccc([N+](=O)[O-])c2C1=O [CBK115322] | 88.9919%
O=C(Nc1ccc(O)cc1)c1ccc(N2C(=O)c3cccc([N+](=O)[O-])c3C2=O)cc1 [CBK262600] | 113.792%
Clc1ccc(CN2CCN(Cc3ccc(Cl)cc3)C2c2ccncc2)cc1 [CBK265207] | 148.395%
O=C(O)CSc1c(NC(=O)c2ccccc2)sc2c1CCCC2 [CBK261062] | 108.88%

Compound | % of control remaining
O=C(Nc1ccc(S(=O)(=O)NCc2ccncc2)cc1)c1ccccc1Cl [CBK269664] | 88.7283%
CCN1CCN(CC(=O)C(C#N)c2ccccc2)CC1 (stereo not drawn) [CBK269423] | 167.459%
Cc1oc2nc(CSc3ccc4ccccc4c3)[nH]c(=O)c2c1C(=O)O [CBK296645] | 126.237%
CCOC(=O)CSc1c2cc3c(nc2nc(=O)n1Cc1ccccc1)CC(C)(C)OC3 [CBK018608] | 120.254%
Nc1ncc(-c2ccco2)nc1NCC1CCOCC1 [CBK063825] | 141.426%
O=C(c1nc2ccccc2[nH]1)N1CCc2ccccc21 [CBK200411] | 125.393%
N#CC1CCCc2c1[nH]c1ccccc21 (stereo not drawn) [CBK098397] | 131.453%
c1ccc2c(c1)N1CCCN=C1N2CCN1CCOCC1 [CBK278300C] | 107.751%
CCN1CCN(C(=O)c2c(C)noc2C)CC1 [CBK200374] | 106.688%
C=CCOc1ccc(OCCN2CC(C)OC(C)C2)cc1 (stereo not drawn) [CBK269646C] | 116.83%
O=C(O)c1ccccc1OCCCCOc1cccc2cccnc12 [CBK264136] | 139.63%
CNC(=O)C1(Cc2ccc(-c3ccccc3)cc2)CCN(C(=O)Cc2ccccc2)CC1 [CBK285764] | 127.179%
CC(=O)N[C@H](Cc1c[nH]c2ccccc12)C(=O)N1CCN(c2ccc(C)cc2)CC1 [CBK091333] | 114.49%
CC(C)NC(=O)NC[C@H]1C[C@@H]2CCN1C[C@@H]2c1cc(-c2ccc(F)cc2)nn1C [CBK289111] | 128.313%
CN(C(=O)Cn1cccn1)c1nc2c(s1)CC(c1ccccc1)CC2 (stereo not drawn) [CBK305173] | 77.9105%
CCC1=C(c2ccc(Cl)cc2)CCC(C(=O)NCCCN(C)C)C1C (stereo not drawn) [CBK012578] | 52.28%
Cc1ccc(S(=O)(=O)Nc2ccc(Nc3cc(-c4ccsc4)ncn3)cc2)cc1 [CBK037792] | 134.16%
Cc1cc(F)ccc1C(=O)NCC1CCN(c2cnn(C)c(=O)c2)C1 (stereo not drawn) [CBK307097] | 92.3583%
c1coc(-c2nccnc2NCc2ccncc2)c1 [CBK038059] | 119.476%
COc1cccc2sc(NC(=O)CCCN(C)C)nc12 [CBK149261] | 123.126%
Cc1ccc(OCCO)cn1 [CBK001786] | 111.222%

Compound | % of control remaining
Cc1ccc(Cc2cnc(NC(=O)N3CCC(O)C(F)(F)C3)s2)cc1C (stereo not drawn) [CBK304120] | 167.32%
c1csc(CNc2nc3ccccc3n2CCN2CCOCC2)c1 [CBK262462] | 98.402%
CN(C)CCCN(Cc1ccco1)Cc1cccn1-c1ccccn1 [CBK283180] | 125.423%
COc1cc(/C=N\NC(=O)CN2CCN(C)CC2)cc2c1OCO2 [CBK261503] | 89.9486%
COc1ccc(C(=O)C2=C(O)C(=O)N(Cc3cccnc3)C2c2ccc(N(C)C)cc2)cc1 (stereo not drawn) [CBK264635] | 100%
COc1ncc(-c2nccnc2NCc2cccs2)c(OC)n1 [CBK037318] | 182.197%
Cc1ccc(C)c(N2CCN(CCCNC(=S)Nc3ccc(Cl)cc3Cl)CC2)c1 [CBK267951] | 78.1396%
COC(=O)NC(=O)N1CCN(c2c(Cl)cncc2Cl)CC1 [CBK043398] | 91.8514%
CC(=O)N[C@@H](CC[S+](C)[O-])C(=O)N1CCC2(C/C=C/C[C@@H]3COCC[C@@H]3NC(=O)[C@@H](CC(C)C)NC2=O)CC1 (stereo partly drawn) [CBK292192] | 82.6532%
O=C(O)C1=CC(c2c[nH]nc2-c2ccc(F)cc2)n2ncnc2N1 (stereo not drawn) [CBK286906] | 122.368%
COc1ccccc1N1CCN(c2c(C)c(C)nc3cc(-c4nccn4C)nn23)CC1 [CBK286182] | 138.016%
CCN1CCC(CC(=O)N2CCc3[nH]c4ccccc4c3C2)CC1 [CBK281846] | 162.527%
c1ccc(CCNc2c3c(nc4ccccc24)CCC3)cc1 [CBK263693C] | 111.07%
N#Cc1c(NC(=O)c2cc(S(=O)(=O)N3CCOCC3)cs2)sc2c1CCCC2 [CBK264532] | 100%
CCCSCC(=O)Nc1nn(C)c2cccc(N3CCOCC3)c12 [CBK307354] | 115.016%
COc1ccc(Cl)cc1NC(=O)C1CC(=O)N=C(N2CCOCC2)N1 (stereo not drawn) [CBK268893] | 123.487%
COc1ccc(CC(=O)N2CCCc3c(cnn3C)C2)cc1F [CBK285285] | 115.039%
O=S(=O)(Nc1cc(F)cc(F)c1F)c1cc(OC2CCNCC2)c2occc2c1 [CBK082814C] | 141.135%
Cc1cc(-c2nnc(SCc3ccc(Cl)cc3)n2C)no1 [CBK067720] | 95.8786%
COc1ccccc1CN(C(=O)Nc1ccccc1Cl)C1CC1 [CBK298332] | 129.88%
CCCCNC(=O)NS(N)(=O)=O [CBK022990] | 171.637%

Compound | % of control remaining
Clc1ccc(CSc2nccnc2N2CCCC2)cc1 [CBK107177] | 68.3992%
C/C(Cl)=C\CN1C(=O)C(=O)c2cc(C)ccc21 [CBK087601] | 104.601%
Cn1cc(-c2ccncc2)c(C2CCCCN2C(=O)c2ccccc2)n1 (stereo not drawn) [CBK283444] | 141.617%
O=C1CCCN1c1ccc(S(=O)(=O)NC2C3CCCCC32)cc1 (stereo not drawn) [CBK282842] | 100.631%
CC1=NC(O)(C(F)(F)F)C(c2ccccc2)S1 (stereo not drawn) [CBK009121] | 145.68%
C/C(=N\Nc1ccc(Cl)c(Cl)c1)c1cccnc1 [CBK015914C] | 164.2%
CC1(C)Cc2c(sc(NC(=O)C3CC(Cl)=CCC3C(=O)O)c2C#N)CO1 (stereo not drawn) [CBK265002] | 100%
O=S(=O)(NC1CCCCC1)c1ccc(Cl)cc1I [CBK057574] | 120.379%
COCC(=O)NC1CCN(CC2(c3ccc(C)cc3)CC2)CC1 [CBK285350] | 97.0475%
Cc1cc(C[C@@H]2CCC[C@H]2NCc2cc(Cl)ccc2O)on1 [CBK282997] | 144.966%
Cc1nc(C)c(CC(=O)N2CCC(Oc3cccc(F)c3)CC2)s1 [CBK282223] | 131.854%
CSc1ccc(-c2cnc(N)c(-c3ccc(C(=O)N4CCOCC4)cc3)n2)cc1 [CBK084539] | 120.157%
O=C(CCSc1ccccc1)Nc1ccccc1C(=O)O [CBK264119] | 93.778%
Cc1c(C)n(Cc2ccco2)c2ncnc(SCCC(=O)O)c12 [CBK307569] | 129.944%
CCNS(=O)(=O)c1ccc(NC(=S)Nc2ccc(S(N)(=O)=O)cc2)cc1 [CBK266978] | 91.8209%
CN(C)CCCN1C(=O)C(O)=C(C(=O)c2ccc(Br)cc2)C1c1cccnc1 (stereo not drawn) [CBK264589] | 100%
CCOc1ccc2nc(SCc3nc(N)nc(Nc4cccc(Cl)c4C)n3)sc2c1 [CBK265202] | 100%
O=c1nc(C(F)(F)F)n2ccccc2n1 [CBK027683] | 122.988%

Some of these compounds in order of molecular weight, rising:
Compound | % of control remaining
CC1=NC(O)(C(F)(F)F)C(c2ccccc2)S1 (stereo not drawn) [CBK009121] | 145.68%
Cc1cc(C[C@@H]2CCC[C@H]2NCc2cc(Cl)ccc2O)on1 [CBK282997] | 144.966%
Cc1c(C)n(Cc2ccco2)c2ncnc(SCCC(=O)O)c12 [CBK307569] | 129.944%
O=S(=O)(NC1CCCCC1)c1ccc(Cl)cc1I [CBK057574] | 120.379%
CSc1ccc(-c2cnc(N)c(-c3ccc(C(=O)N4CCOCC4)cc3)n2)cc1 [CBK084539] | 120.157%
